Experimental data taken from patent US6930104B2, “Heterocyclic derivatives” (Takeda Chemical Industries, Ltd., priority 2001, dated 2005).
At least one structure is not confirmed: it was looked up by name or label, or the drawing left a doubt.

Key:
[1] = tested on: sAPP secretion in PC12h cells; assay: Stimulatory effects on sAPP secretion (Western blotting of culture supernatant); format: cell-based, rat; conditions: 5 hours after addition, Western blotting with anti-βAPP antibody 22C11
Procedure: (§1) PC12h cells, a subspecies of rat-derived pheochromocytoma PC12 cells, were provided by the late Professor Hiroshi Hatanaka (Osaka University, Japan). Dulbecco's modified Eagle's medium (DMEM), phosphate buffered saline (PBS), HEPES (N-2-hydroxyethylpiperazine-N′-2-ethanesulfonic acid) buffer (pH 7.4), horse serum (HS) and a penicillin (5000 U/ml)/streptomycin (5 mg/ml) mixture were purchased from Gibco BRL. Fetal calf serum (FCS) was purchased from Bioscience PTY. Transferrin, insulin and progesterone were purchased from Sigma. The flasks used for culture were manufactured by Falcon, and the collagen-coated 96-well and 6-well multiwell plates used for assay were manufactured by Iwaki Glass Co., Ltd. (Japan). An LDH assay kit (LDH cytotoxic test Wako) and an anti-βAPP antibody 22C11 were purchased from Wako Pure Chemical Industries, Ltd. (Japan) and Chemicon, respectively. All other chemicals used were commercially available and of reagent grade.
PC12h cells were grown in DMEM culture medium supplemented with 10% FCS, 5% HS and penicillin/streptomycin, and then released by pipetting. The cells were seeded in collagen-coated 6-well plates at a confluency of 50% to 70% and allowed to stand for 1 day. […] An ECL Plus (Amersham) was used for detection and the signals were digitized by an LAS-1000 plus (Fuji film, Japan), followed by quantification with NIH-image software.

PC12h cells = assay: Inhibitory effects on glutamate-induced cell death (LDH activity of living cells); format: cell-based, rat; conditions: concentration of 1 μM, 72 hours
Procedure: as §1
PC12h cells were seeded in 96-well plates at a density of 2×10^4 cells/cm^2. […] After 72 hours, living cells were counted. Cell counts were determined as follows: after removal of the culture medium, living cells were solubilized in 0.1% Tween 20-containing PBS and assayed for LDH activity. The results were expressed as % of control, whose LDH activity was set to 100.

For `COc1ccc(C(=O)N2c3ccccc3C(n3c4ccccc4c4ccccc43)CC2C)cc1OC` (stereo not drawn) [Example 32, 2,4-cis-4-(9H-9-Carbazolyl)-1-(3,4-dimethoxybenzoyl)-2-methyl-1,2,3,4-tetrahydroquinoline], the “sAPP level in the culture medium as compared to the control group” value [1] was “concentration-dependent increase” and the “inhibition of cell death induced by addition of 1 mM glutamic acid” value (PC12h cells) was “completely inhibited”.
